Patent US20240392240A1, “PIG EMBRYO-DERIVED PLURIPOTENT STEM CELLS AND USE THEREOF” (CHINA AGRICULTURAL UNIVERSITY, priority 2021, published 2024)
At least one compound was matched to its structure with a doubt left.

Test system: pgEpiSCs
Test: Clone morphology and alkaline phosphatase (AP) staining of pgEpiSCs in modified 3i/LAF medium
Format: cell-based, pig
Settings: inhibitor added into the culture medium; FIG. 2-1G, 2-1L
Protocol: The alkaline phosphatase staining of pgEpiSC was based on the Alkaline Phosphatase Assay Kit (Millipore, SCR004). Specific experimental steps followed the instructions of the kit.
Epiblast from pig E8-E10 embryos was obtained, and the epiblast was treated with TrypLE™ Express followed by repeatedly blowing to disperse into small cell masses. The cell masses were then inoculated into 12-well cell culture dishes (density of the feeder layer cells were approximately 2×10^5 cells/well) supplemented with 750 μL of 3i/LAF medium (Note: 10 μM Y27632 was added into the 3i/LAF medium), wherein the feeder layer cells were mouse embryonic fibroblasts treated with mitomycin C (Selleckchem, S8146) and cultured in an incubator at 37° C., 100% humidity, and 5% CO2. After 12 hrs, another 750 μL of 3i/LAF medium was added without changing the medium, and after 24 hrs, the medium was replaced with fresh 3i/LAF medium (containing 2 μM Y27632). After that, the medium was replaced with fresh medium every 12 hrs, and after the clones grew for 2-3 days, the morphology of the clones was observed and the clones were digested for passaging. […]

`N#CC[C@H](C1CCCC1)n1cc(-c2ncnc3[nH]ccc23)cn1` [ruxolitinib] was tested, and the “clone morphology after addition of the inhibitor” value was “flattened the clones”.
